Library screening results

The chains behind the UniProt entries cited, without tags or fusion partners.
UniProt E9BF75, entry or part of it: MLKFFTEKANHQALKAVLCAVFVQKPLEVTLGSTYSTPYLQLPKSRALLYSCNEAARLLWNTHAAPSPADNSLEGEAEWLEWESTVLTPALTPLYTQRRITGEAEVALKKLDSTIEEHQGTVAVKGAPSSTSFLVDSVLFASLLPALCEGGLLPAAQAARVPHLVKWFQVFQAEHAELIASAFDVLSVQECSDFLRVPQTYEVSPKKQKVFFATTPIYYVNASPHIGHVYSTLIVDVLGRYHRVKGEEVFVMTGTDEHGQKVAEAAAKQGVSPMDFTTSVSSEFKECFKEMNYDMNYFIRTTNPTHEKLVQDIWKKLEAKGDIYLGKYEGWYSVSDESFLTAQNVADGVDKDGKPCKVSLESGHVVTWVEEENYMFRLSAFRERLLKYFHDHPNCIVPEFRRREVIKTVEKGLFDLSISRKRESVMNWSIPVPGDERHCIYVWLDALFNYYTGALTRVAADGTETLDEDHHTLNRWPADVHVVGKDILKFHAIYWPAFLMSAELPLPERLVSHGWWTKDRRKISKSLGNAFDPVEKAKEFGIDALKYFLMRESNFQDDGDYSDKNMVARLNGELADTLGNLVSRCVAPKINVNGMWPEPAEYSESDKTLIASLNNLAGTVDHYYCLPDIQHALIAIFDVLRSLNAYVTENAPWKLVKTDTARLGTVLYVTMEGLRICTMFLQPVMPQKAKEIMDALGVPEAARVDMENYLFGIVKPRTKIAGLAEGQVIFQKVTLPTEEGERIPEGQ

Data taken from ChEMBL document CHEMBL3988442, “University of Dundee, Small-Polar-MMV Screening Library” (2021).

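Primary screen of methionyl-tRNA synthetase; the read-out is not stated. Target: Methionyl-tRNA synthetase (putative), Leishmania donovani (UniProt E9BF75). The test concentration is not given. The values are filed as inhibition. Of about 68,000 compounds tested this way, about 24 (0.035%) reached 50% or more in at least one test.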

Results are percentages, as filed. How 0% and 100% were set is not recorded. Most values in the screen are low, and negative values occur. Compounds were drawn at random from those tested, without regard to their results.

Compound	inhibition
Cc1cc(C)n(CC2CCCN2Cc2nc(N)c3ccccc3n2)n1 (configuration not stated)	26.07%
Cn1cnc2nc3n(c2c1=O)CCC3	7.368%
CCC(CO)NC(=O)c1cc(COc2ccc(OC)cc2Cl)[nH]n1 (configuration not stated)	17.93%
CN1CCN(C2CCN(c3cnc4ccccc4n3)CC2)C1=O	19.06%
N#Cc1ccccc1C(=O)N1C[C@H](CO)C[C@H](CN2CCCC2)C1	7.407%
CCN(CC)c1ccc(NS(=O)(=O)c2cnn(C)c2)cn1	17.5%
Cc1nc2c(c(NCCc3nc(C)c(Cl)s3)n1)CCNCC2	11.06%
Cn1cccc1C(=O)N1CCCn2nc(CCC(=O)NC3CC3)cc2C1	12.96%
O[C@@H]1C[C@@H](c2nc(Cc3ccccc3)no2)N(Cc2ccc(F)cc2)C1	7.692%
C[S+]([O-])c1nncn1CC(=O)c1ccc(Br)cc1 (configuration not stated)	7.829%
O=C(Nc1nnc(N2CCCCC2)[nH]1)c1cccs1	17.47%
Cn1nccc1NC(=O)CN1CCc2sccc2C1	20.56%
Cc1nc(-c2ccc(S(=O)(=O)N3CCSC3)cc2)co1	14.09%
CCN(CC)c1ncc2c(c1C(=O)O)CCN(C1CCOC1)C2 (configuration not stated)	3.261%
COCC(=O)N1CCN(C)C(=O)C(Cc2ccc(-c3cccs3)cc2)C1 (configuration not stated)	17.72%
Cc1ccnc(C2(C)CCCN2S(=O)(=O)c2ccccc2)n1 (configuration not stated)	7.558%
Cc1ccc(N2CCN(C(=O)CCc3n[nH]c(C)c3C)CC2=O)cc1	7.886%
CC(Nc1nc2c(cnn2C)c(=O)[nH]1)c1ccc2c(c1)CCCC2 (configuration not stated)	3.377%
Cc1cc(C)n(CC2CCCN2C(=O)CCc2ccco2)n1 (configuration not stated)	16.39%
CCc1ccc2nc(C)cc(C(=O)NC3CCC(=O)N(C)C3)c2c1 (configuration not stated)	12.39%
Cc1nn(C)c2ncnc(NCc3nncn3C3CCCCC3)c12	12.04%
COc1cc(C(=O)N(Cc2cccs2)C2CC2)cc2c1OCCO2	4.244%
Cc1nc(N2CCOCC2)nc(C)c1NC(=O)COc1ccccc1	10.79%
c1cc2occc2c(N2CCCC(c3nncn3C3CC3)C2)n1 (configuration not stated)	2.801%
CCC(C)NC(=O)c1sccc1-n1cnnn1 (configuration not stated)	4.336%
O=C(NCCn1cccc1)C1CCC(=O)N(C2CCCC2)C1 (configuration not stated)	1.25%
CCN1CCN(C2CCN(C(C(N)=O)c3ccc(F)cc3)CC2)C1=O (configuration not stated)	1.902%
Cc1cc(NC(=O)CN2CCC(N3CCNC3=O)CC2)on1	14.75%
OCCCN1CCc2onc(C(c3ccccc3)c3ccccc3)c2C1	6.301%
CC(C)c1ccc(O)c(C(=O)NC2CCN(c3ncccn3)CC2)c1	4.032%
COc1ccc(C2OC(COc3ccc(C)cc3)=NN2C(C)=O)cc1 (configuration not stated)	10.14%
CCc1nnc2n1CCN(CC(O)CN1CCC(C)CC1)C2 (configuration not stated)	18.75%
CNC(=O)[C@@H]1C[C@@H](N)CN1C1CCN(Cc2ccccn2)CC1	-3.846%
CC(CN(C)Cc1cccc(-n2cccn2)c1)C(F)(F)F (configuration not stated)	13.33%
Cc1nc(CN2C(=O)CC[C@@H]3[C@H]2CCN3C2CCOC2)cs1 (some centres not stated)	20.25%
COc1ccc2c(c1)CC(NCCCn1cc(C)cn1)CC2 (configuration not stated)	-4.261%
Cc1n[nH]c(C)c1Sc1ccccc1NC(=O)N1CCN(C)CC1	5.556%
CSc1cccc(CN(C)C(=O)Nc2nc(C)n(C)n2)c1	1.676%
CCn1nc(C)c(NC(=O)c2nnn(Cc3ccccc3)c2OC)c1C	29.9%
Cn1ccnc1CN1C[C@@H](CN2CCCC2)[C@@H](CO)C1	9.399%
COc1cccc(C2SCC(=O)Nc3ccsc32)c1 (configuration not stated)	11.69%
Cc1nn(C)c2nc3c(c(C(=O)/N=c4\[nH]nc(C(C)C)s4)c12)CCC3	10.21%
O=C(c1cnc2ccccc2c1)N1CCCC(O)(CN2CCCC2)C1 (configuration not stated)	9.044%
CN(C)c1cccc(C(=O)Nc2cnn(Cc3ccncc3)c2)c1	16.72%
O=C(NCCc1ccc(Cl)cc1)c1coc(CN2CCOCC2)c1	10.99%
CCO[C@H]1CN(C)C[C@@H]1NC(=O)c1c[nH]nc1C1CCCCC1	9.059%
Cc1ncsc1CNc1ccn(Cc2ccccc2)n1	11.45%

Repeated from the top, 4 entries:

| Compound | inhibition |
|---|---|
| `Cc1cc(C)n(CC2CCCN2Cc2nc(N)c3ccccc3n2)n1` (configuration not stated) | 26.07% |
| `Cn1cnc2nc3n(c2c1=O)CCC3` | 7.368% |
| `CCC(CO)NC(=O)c1cc(COc2ccc(OC)cc2Cl)[nH]n1` (configuration not stated) | 17.93% |
| `CN1CCN(C2CCN(c3cnc4ccccc4n3)CC2)C1=O` | 19.06% |